Measured values taken from PubChem BioAssay AID256 (DTP/NCI, 2004).
The list shows only some results of the screen, not a fair sample: it is rich in T/C values a quarter to a half above the control, in often repeated tests (any T/C) and in doses without a T/C. Other doses and runs of a compound stand elsewhere. T/C: endpoint of the treated group in % of that of the vehicle group. Some entries give survivors of the animals treated and no T/C: the source holds a T/C of zero for them, seemingly a mark for toxic or unscored doses. Some survivor counts are full or nearly so, which does not show that the dose was tolerated: the source hardly ever lists a survival T/C far under the control, and the zero likely stands for such cases as well. Counts of survivors are from the toxicity check (mostly the fifth day) where no day follows; animals may have died later. Schedule codes are those of the source, taken here to give the interval after Q, in days (D) or hours (H), and the number of doses after X. Some doses were run more than once; the results are listed from low to high. For survival time, this PubChem deposit counts one and a half times the control or more as active, and values a quarter to a half above the control carry no call in these data; other NCI protocols may use other cut-offs. Some T/C values carry the count of animals alive at the toxicity check (mostly the fifth day); where none is given, no animal had died by that day. Counts like (3×) stand for listed records that agree.

Test system: CD2F1 mice, L1210 leukemia ip, survival T/C
Experiment: NCI In Vivo Anticancer Drug Screen. Data for tumor model L1210 Leukemia (intraperitoneal) in CD2F1 (CDF1) mice
Conditions: T/C endpoint: mean survival time, higher T/C = longer survival
In short: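 Antitumor effect is scored in animals hosting a serially transplanted tumor. Values compare compound-dosed animals against vehicle-only controls as a simple quotient.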

[1] = dose: 200.0 mg/kg/injection, schedule: Q04DX003 (ip), vehicle: saline with Tween-80
[2] = dose: 400.0 mg/kg/injection, schedule: Q04DX003 (ip), vehicle: saline with Tween-80
[3] = dose: 400.0 mg/kg/injection, schedule: Q01DX009 (ip), vehicle: saline with Tween-80
[4] = dose: 37.5 mg/kg/injection, schedule: Q01DX009 (ip), vehicle: Klucel (hydroxypropylcellulose) (HPC)
[5] = dose: 150.0 mg/kg/injection, schedule: Q01DX009 (ip), vehicle: Klucel (hydroxypropylcellulose) (HPC)
[6] = dose: 300.0 mg/kg/injection, schedule: Q01DX009 (ip), vehicle: Klucel (hydroxypropylcellulose) (HPC)
[7] = dose: 5.0 mg/kg/injection, schedule: Q01DX005 (ip), vehicle: water

COc1cc2c(cc1OC)C(CC(C)C)=[N+](C)CC2
survivor count (dose: 200.0 mg/kg/injection, schedule: Q04DX002 (ip), vehicle: saline with Tween-80): 3 of 3 | survivor count (dose: 400.0 mg/kg/injection, schedule: Q04DX002 (ip), vehicle: saline with Tween-80): 1 of 3

CC(=O)c1cc([N+](=O)[O-])ccc1O
survivor count [1]: 3 of 6 | survivor count [2]: 1 of 6

CCOC1(c2ccccc2)c2ccccc2C(C)(C)c2ccccc21
survivor count [1]: 6 of 6

C1OCN2CSCC12 (configuration not stated)
survivor count [3]: 3 of 6

NC(N)=NCc1ccccc1
survivor count (dose: 100.0 mg/kg/injection, schedule: Q04DX003 (ip), vehicle: saline): 2 of 6 and 3 of 6 | survivor count (dose: 200.0 mg/kg/injection, schedule: Q04DX003 (ip), vehicle: saline): 0 of 6 and 1 of 6 | survivor count (dose: 400.0 mg/kg/injection, schedule: Q04DX003 (ip), vehicle: saline): 0 of 6

CC(C)(C)OC(=O)CSC#N
survivor count (dose: 100.0 mg/kg/injection, schedule: Q01DX001 (ip), vehicle: saline): 0 of 4 | survivor count (dose: 200.0 mg/kg/injection, schedule: Q01DX001 (ip), vehicle: saline): 0 of 4 | survivor count (dose: 400.0 mg/kg/injection, schedule: Q01DX001 (ip), vehicle: saline): 0 of 4

Cc1ccc(N=NN(C)C)cc1
T/C [4]: 143 % of control | survivor count [5]: 0 of 6 | survivor count [6]: 0 of 6

N#Cc1cn(C2OC(CO)C(O)C2O)c2ncnc(N)c12 (configuration not stated)
T/C (dose: 0.25 mg/kg/injection, schedule: Q01DX009 (ip), vehicle: saline): 134 % of control | survivor count (dose: 2.0 mg/kg/injection, schedule: Q01DX009 (ip), vehicle: saline): 6 of 6

O=C1CC2C3C=CC4C3CC2C14 (configuration not stated)
survivor count (dose: 300.0 mg/kg/injection, schedule: Q01DX001 (ip), vehicle: saline with Tween-80): 1 of 6

CC(CCl)C(C#N)(c1ccccc1)c1ccccc1 (configuration not stated)
survivor count [2]: 6 of 6

ClCCN(CCCl)c1ccc(CNCCCNCc2ccc(N(CCCl)CCCl)cc2)cc1
T/C (dose: 5.0 mg/kg/injection, schedule: Q01DX009 (ip), vehicle: saline sonified): 128 % of control | survivor count (dose: 10.0 mg/kg/injection, schedule: Q01DX009 (ip), vehicle: saline with Tween-80): 3 of 6 | survivor count (dose: 20.0 mg/kg/injection, schedule: Q01DX009 (ip), vehicle: saline with Tween-80): 2 of 6 | survivor count (dose: 40.0 mg/kg/injection, schedule: Q01DX009 (ip), vehicle: saline with Tween-80): 0 of 6

CCC[CH2][Sn]1([CH2]CCC)[O]C2C(CO)OC(n3cnc4c(N)ncnc43)C2[O]1 (configuration not stated)
survivor count (dose: 6.25 mg/kg/injection, schedule: Q01DX005 (ip), vehicle: other): 4 of 6 | survivor count (dose: 12.5 mg/kg/injection, schedule: Q01DX005 (ip), vehicle: other): 1 of 6 | survivor count (dose: 25.0 mg/kg/injection, schedule: Q01DX005 (ip), vehicle: other): 0 of 6

CO[C@@]12[C@@H]3N[C@@H]3CN1C1=C(C(=O)C(NCCN3CCCC3)=C(C)C1=O)[C@@H]2COC(N)=O
T/C (dose: 1.25 mg/kg/injection, schedule: Q01DX005 (ip), vehicle: water): 134 % of control | T/C [7]: 125 % of control | survivor count [7]: 6 of 6 | survivor count (dose: 10.0 mg/kg/injection, schedule: Q01DX005 (ip), vehicle: water): 1 of 6 | survivor count (dose: 24.0 mg/kg/injection, schedule: Q01DX001 (ip), vehicle: water): 0 of 6

O=C(/C=C(\Cl)C(=O)NO)NO
survivor count (dose: 200.0 mg/kg/injection, schedule: Q01DX009 (ip), vehicle: saline): 4 of 10 and 3 of 6

CCNC(=O)c1ccccc1N=NN(C)C
T/C [4]: 97, 106, 112, 113 % of control | T/C (dose: 75.0 mg/kg/injection, schedule: Q01DX009 (ip), vehicle: Klucel (hydroxypropylcellulose) (HPC)): 105 (2×), 124, 134 % of control [5 of 6 alive] | T/C [5]: 104, 117, 130, 137 % of control | survivor count [6]: 2 of 6, 3 of 6, 4 of 6

O=C(O)c1ccc(C(=O)O)c2c(C(=O)O)ccc(C(=O)O)c12
survivor count [3]: 4 of 6
